These are yes or no findings as the source states them, for the method shown. For part of these data: In cells and extracts the contact can be indirect. Some entries that bind do so weakly or less than the wild type.
What was measured:
[1] = biological target: endogenous DDX5 (human (endogenous in HepaRG)) (UniProt P17844); assay: co-IP; HepaRG native whole-cell lysates immunoprecipitated with DDX5 Ab or IgG, immunoblots (endogenous proteins)
[2] = biological target: FLAG-DDX5 (RNA helicase DEAD box protein 5, wild type) (UniProt P17844); assay: co-IP + native gel or EMSA; native nuclear lysates of Dox-inducible FLAG-DDX5 HepaRG cells (1.0 µg/mL Dox and 500 ng/mL IFN-α, 48 h) immunoprecipitated with anti-DDX5 overnight at 4°C, eluted with 0.2 M glycine pH 2.6, NativePAGE 3-12% Bis-Tris, immunoblots
[3] = biological target: FLAG-DDX5 (RNA helicase DEAD box protein 5, wild type) (UniProt P17844); assay: co-IP; whole-cell extract of Dox-inducible FLAG-DDX5 HepaRG cells grown with or without doxycycline (1.0 µg/mL, 48 h), immunoprecipitated with FLAG Ab or IgG, immunoblots
[4] = biological target: FLAG-DDX5 (RNA helicase DEAD box protein 5, wild type) (UniProt P17844); assay: SEC; native nuclear lysates of Dox-inducible FLAG-DDX5 HepaRG cells fractionated on Superdex 200 Increase; fractions (750 kDa to below 360 kDa) analysed by immunoblot and LC-MS/MS; also lysates treated with benzonase (125 U/mg, 45 min on ice) or RNase A (10 µg/mg, 30 min, room temperature) before SEC

Protein sequences, listed by entry. Tags and fused reporters are not part of them.
UniProt P17844: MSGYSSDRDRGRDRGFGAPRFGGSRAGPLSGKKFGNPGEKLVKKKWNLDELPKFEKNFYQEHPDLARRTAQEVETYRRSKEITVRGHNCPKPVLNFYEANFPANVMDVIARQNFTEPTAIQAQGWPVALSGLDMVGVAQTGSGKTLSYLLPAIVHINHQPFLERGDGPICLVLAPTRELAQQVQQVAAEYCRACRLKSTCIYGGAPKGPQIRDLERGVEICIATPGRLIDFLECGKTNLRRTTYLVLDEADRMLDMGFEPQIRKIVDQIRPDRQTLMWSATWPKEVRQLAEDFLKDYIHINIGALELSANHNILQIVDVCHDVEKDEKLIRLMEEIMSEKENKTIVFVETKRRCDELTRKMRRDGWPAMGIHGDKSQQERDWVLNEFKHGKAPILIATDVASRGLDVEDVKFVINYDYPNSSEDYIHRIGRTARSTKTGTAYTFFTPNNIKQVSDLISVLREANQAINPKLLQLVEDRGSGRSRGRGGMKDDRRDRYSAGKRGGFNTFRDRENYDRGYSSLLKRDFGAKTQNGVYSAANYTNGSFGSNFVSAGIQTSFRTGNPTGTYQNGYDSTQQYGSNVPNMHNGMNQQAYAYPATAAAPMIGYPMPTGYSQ
UniProt Q15022: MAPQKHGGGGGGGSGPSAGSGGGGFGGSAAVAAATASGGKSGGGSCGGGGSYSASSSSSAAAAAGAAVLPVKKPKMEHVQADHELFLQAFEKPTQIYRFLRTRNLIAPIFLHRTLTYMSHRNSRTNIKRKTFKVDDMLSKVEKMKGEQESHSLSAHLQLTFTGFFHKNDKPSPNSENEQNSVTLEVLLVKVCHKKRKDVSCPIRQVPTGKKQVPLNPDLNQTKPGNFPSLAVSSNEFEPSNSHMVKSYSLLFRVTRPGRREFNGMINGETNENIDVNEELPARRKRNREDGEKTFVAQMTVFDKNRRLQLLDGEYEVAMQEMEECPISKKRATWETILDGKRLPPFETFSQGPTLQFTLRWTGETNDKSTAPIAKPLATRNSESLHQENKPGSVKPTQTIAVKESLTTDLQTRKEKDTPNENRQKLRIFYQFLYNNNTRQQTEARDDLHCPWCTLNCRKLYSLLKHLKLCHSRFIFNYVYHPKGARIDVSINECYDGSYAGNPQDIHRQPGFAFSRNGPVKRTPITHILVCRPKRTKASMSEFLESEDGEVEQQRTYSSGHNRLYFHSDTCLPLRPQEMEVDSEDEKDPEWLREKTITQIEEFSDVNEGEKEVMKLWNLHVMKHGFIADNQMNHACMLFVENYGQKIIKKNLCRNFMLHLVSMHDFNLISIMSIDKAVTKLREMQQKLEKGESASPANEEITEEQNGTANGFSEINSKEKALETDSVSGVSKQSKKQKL
UniProt Q09028: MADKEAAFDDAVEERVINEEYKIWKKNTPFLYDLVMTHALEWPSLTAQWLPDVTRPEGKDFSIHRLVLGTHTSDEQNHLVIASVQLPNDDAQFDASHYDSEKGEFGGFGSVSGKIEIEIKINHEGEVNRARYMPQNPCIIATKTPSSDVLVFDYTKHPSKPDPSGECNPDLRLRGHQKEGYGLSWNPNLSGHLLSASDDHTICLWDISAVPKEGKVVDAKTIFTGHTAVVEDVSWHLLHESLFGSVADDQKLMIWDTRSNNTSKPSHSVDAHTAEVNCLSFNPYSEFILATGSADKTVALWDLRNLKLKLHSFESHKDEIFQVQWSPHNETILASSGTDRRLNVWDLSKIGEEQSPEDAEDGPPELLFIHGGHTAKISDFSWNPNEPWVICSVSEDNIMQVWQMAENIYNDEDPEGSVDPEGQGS
UniProt Q16666: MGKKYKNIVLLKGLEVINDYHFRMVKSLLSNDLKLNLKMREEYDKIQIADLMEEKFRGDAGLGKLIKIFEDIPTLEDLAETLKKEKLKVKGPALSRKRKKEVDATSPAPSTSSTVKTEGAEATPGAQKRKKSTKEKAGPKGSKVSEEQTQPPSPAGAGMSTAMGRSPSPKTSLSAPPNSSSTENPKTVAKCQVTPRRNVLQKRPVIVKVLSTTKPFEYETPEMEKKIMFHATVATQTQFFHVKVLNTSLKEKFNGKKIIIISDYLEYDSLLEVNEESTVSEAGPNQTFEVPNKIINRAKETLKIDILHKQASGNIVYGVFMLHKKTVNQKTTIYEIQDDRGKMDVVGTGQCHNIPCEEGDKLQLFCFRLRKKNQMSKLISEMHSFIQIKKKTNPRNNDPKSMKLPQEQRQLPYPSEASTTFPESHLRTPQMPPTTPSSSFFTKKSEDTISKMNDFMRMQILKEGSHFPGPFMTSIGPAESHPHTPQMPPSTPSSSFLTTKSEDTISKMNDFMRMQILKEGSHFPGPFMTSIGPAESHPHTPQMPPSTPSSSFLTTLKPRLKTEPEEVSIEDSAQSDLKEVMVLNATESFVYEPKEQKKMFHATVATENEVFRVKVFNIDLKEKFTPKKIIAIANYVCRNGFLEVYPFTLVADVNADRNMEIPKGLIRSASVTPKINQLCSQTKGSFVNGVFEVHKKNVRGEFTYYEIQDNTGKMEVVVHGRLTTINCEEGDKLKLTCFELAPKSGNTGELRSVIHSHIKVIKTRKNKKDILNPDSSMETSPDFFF

| binding [1] | binding [2] | binding [3] | binding [4] | Substance |
| --- | --- | --- | --- | --- |
| binds | binds | binds | binds | SUZ12, core PRC2 subunit (from UniProt Q15022 1-739) |
| binds | binds | binds | binds | RBBP4, auxiliary PRC2 subunit (from UniProt Q09028 1-425) |
| binds | binds | binds | binds | interferon-inducible protein 16 (IFI16) (from UniProt Q16666 1-785) |

Reference: article PMC11648352
